# Assay results: publication PMC11334498
# These are yes or no findings as the source states them, for the method shown. In cells and extracts the contact can be indirect. Some results given as binding are weak or reduced against the parent protein; the word gives no strength.
# Target: T1, PHD4 (prolyl 4-hydroxylase, transmembrane), coded by P4HTM (human (endogenous in human CRC cell lines)) (UniProt Q9NXG6)
# T1 sequence: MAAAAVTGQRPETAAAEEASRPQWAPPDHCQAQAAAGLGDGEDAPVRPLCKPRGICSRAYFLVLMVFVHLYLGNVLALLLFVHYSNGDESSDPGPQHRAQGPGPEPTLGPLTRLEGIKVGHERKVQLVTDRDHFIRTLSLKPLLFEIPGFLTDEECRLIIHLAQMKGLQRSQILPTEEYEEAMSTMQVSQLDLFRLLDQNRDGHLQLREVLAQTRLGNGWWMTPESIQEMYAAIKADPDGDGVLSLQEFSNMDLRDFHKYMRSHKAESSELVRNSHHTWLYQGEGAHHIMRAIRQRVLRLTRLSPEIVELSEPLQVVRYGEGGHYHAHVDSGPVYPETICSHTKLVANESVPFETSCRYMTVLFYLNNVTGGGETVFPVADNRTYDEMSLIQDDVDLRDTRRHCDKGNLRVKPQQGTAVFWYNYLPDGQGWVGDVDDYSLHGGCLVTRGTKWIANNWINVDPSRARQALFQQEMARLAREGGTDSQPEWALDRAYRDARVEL
# Test: co-IP; Co-IP Kit (Bersin); cell lysate with protease inhibitors incubated overnight at 4 °C with beads conjugated to anti-HIF1A/PHD4/NXPH4/IgG antibodies; western blot; some panels after lentiviral NXPH4 knockdown or overexpression
binder,measurement,value
"Neurexophilin 4 (NXPH4) (protein, UniProt O95158 24-308) QIPESGRPQYLGLRPAAAGAGAPGQQLPEPRSSDGLGVGRAWSWAWPTNHTGALARAGAAGALPAQRTKRKPSIKAARAKKIFGWGDFYFRVHTLKFSLLVTGKIVDHVNGTFSVYFRHNSSSLGNLSVSIVPPSKRVEFGGVWLPGPVPHPLQSTLALEGVLPGLGPPLGMAAAAAGPGLGGSLGGALAGPLGGALGVPGAKESRAFNCHVEYEKTNRARKHRPCLYDPSQVCFTEHTQSQAAWLCAKPFKVICIFVSFLSFDYKLVQKVCPDYNFQSEHPYFG",binding,binds
